Laboratory results taken from the supplement of paper PMC10849652.
The list shows a part of the results.

Amino acid sequences for entries named in this document (tags omitted). A change or cut given only in a name is not applied to a line headed by its entry.
UniProt O75616: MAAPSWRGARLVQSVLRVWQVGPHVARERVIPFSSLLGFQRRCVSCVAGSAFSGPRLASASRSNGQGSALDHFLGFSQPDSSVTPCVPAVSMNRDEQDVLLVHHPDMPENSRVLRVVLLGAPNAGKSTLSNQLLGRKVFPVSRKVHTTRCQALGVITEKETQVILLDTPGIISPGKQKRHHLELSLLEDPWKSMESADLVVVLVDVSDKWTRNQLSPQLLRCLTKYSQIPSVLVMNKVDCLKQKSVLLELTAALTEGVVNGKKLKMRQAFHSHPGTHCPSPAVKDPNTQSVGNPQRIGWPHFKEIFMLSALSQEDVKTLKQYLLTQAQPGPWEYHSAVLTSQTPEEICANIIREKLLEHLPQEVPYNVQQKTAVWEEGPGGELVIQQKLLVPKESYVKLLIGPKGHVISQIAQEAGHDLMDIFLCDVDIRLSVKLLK
UniProt Q8TBG4: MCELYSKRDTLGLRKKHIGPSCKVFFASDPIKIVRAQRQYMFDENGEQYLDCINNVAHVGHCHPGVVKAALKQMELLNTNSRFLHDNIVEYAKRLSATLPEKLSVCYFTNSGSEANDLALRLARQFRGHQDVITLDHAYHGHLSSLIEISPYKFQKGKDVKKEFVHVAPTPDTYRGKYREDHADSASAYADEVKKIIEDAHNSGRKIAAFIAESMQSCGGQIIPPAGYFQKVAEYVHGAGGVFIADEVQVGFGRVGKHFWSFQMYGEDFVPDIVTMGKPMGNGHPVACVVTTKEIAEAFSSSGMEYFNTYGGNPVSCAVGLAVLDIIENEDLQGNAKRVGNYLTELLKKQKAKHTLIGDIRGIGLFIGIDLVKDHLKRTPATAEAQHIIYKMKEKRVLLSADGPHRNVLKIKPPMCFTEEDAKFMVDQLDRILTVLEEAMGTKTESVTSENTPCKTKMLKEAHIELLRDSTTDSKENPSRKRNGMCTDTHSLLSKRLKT
UniProt Q01844: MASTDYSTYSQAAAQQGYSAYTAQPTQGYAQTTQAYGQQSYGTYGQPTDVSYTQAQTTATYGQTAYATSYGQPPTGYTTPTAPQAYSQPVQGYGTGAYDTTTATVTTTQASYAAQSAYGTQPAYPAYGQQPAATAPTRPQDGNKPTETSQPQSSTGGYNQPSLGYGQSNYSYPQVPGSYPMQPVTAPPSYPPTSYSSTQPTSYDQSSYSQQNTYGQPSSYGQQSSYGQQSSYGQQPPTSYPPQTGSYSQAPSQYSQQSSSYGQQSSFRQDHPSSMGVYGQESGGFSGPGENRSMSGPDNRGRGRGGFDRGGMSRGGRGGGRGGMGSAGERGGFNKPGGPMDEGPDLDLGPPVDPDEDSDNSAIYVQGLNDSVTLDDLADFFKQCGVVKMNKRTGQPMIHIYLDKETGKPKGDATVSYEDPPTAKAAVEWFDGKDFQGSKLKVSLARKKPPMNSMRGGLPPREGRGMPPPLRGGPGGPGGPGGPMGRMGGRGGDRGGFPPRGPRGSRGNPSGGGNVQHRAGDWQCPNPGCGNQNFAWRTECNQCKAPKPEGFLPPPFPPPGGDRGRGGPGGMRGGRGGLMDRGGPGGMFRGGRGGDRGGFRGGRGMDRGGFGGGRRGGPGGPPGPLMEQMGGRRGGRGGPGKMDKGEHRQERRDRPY
UniProt P38117: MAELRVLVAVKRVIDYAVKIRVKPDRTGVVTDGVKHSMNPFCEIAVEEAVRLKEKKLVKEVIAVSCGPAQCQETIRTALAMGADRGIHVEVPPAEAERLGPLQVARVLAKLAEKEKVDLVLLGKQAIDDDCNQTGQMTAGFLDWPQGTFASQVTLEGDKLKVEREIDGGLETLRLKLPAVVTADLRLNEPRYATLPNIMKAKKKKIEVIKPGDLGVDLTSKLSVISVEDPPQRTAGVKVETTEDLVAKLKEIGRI
UniProt P84090, whole entry, looked up: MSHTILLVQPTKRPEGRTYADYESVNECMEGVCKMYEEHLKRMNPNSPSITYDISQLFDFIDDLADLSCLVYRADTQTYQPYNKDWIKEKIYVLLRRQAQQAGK
UniProt Q7Z309: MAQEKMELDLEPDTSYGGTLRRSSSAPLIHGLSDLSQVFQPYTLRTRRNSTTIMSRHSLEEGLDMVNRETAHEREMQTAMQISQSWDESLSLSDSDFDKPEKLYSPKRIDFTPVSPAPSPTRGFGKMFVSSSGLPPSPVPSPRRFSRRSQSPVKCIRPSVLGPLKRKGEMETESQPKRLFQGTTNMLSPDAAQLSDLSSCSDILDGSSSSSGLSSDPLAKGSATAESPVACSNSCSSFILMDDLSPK
UniProt Q96RQ1: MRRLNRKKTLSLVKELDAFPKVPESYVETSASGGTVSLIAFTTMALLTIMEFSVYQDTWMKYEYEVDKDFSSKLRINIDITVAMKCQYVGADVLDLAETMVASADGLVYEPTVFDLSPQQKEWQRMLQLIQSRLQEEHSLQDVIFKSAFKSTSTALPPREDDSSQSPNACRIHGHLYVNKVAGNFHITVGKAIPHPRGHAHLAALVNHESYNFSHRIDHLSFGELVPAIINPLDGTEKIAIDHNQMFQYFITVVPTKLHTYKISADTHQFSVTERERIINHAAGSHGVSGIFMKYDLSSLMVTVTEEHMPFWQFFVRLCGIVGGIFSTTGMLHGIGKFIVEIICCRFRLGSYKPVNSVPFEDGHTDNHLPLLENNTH
UniProt Q92817: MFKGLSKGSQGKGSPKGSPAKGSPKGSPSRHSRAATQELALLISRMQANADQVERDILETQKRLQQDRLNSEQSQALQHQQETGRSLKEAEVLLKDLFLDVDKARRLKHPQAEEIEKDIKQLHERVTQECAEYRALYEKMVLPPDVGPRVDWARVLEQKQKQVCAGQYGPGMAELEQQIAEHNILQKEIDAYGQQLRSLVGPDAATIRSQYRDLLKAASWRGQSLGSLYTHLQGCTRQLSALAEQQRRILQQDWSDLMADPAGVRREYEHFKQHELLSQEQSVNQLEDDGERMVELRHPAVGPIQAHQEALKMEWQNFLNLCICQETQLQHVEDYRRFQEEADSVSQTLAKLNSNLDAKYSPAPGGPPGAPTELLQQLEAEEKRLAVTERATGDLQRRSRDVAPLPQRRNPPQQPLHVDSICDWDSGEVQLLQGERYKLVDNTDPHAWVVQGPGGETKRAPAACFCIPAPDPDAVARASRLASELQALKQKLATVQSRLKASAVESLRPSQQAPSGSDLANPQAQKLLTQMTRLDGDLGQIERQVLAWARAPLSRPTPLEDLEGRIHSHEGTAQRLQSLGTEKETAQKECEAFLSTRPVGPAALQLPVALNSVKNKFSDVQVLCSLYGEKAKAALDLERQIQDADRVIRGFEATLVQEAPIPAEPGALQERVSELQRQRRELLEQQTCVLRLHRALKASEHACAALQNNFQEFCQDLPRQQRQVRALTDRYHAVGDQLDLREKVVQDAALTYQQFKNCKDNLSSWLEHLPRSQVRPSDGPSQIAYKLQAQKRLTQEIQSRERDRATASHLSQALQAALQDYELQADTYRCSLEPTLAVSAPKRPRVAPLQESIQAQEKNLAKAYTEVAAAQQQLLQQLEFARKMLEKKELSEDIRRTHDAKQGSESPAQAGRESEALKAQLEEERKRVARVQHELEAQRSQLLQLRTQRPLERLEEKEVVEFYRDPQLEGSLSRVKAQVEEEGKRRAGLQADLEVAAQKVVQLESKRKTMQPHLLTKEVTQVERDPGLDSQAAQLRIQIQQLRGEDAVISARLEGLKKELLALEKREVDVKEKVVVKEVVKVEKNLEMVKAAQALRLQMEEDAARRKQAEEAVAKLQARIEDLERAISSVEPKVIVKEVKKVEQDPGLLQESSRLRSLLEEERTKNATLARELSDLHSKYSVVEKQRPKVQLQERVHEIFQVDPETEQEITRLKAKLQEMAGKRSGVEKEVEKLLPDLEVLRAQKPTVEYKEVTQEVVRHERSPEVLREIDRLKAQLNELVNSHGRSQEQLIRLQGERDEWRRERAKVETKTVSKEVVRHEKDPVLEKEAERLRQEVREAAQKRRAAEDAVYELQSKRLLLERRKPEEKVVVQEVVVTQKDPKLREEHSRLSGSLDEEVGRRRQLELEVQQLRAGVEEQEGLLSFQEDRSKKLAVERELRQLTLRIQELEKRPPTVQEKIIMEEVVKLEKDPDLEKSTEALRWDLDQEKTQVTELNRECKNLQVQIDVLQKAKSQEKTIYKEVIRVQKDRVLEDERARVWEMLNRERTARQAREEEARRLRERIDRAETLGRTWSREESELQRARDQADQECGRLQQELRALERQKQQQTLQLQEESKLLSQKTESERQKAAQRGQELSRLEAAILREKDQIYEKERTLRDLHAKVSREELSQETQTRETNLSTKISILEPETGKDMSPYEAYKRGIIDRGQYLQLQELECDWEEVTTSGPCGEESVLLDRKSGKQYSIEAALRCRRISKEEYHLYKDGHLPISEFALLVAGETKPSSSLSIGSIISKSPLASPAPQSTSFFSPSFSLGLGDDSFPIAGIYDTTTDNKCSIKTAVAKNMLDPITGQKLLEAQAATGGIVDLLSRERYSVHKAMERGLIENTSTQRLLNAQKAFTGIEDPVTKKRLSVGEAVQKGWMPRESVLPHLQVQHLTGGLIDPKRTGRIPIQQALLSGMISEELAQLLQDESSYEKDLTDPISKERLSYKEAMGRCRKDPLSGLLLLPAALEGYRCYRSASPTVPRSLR
UniProt Q86YB8: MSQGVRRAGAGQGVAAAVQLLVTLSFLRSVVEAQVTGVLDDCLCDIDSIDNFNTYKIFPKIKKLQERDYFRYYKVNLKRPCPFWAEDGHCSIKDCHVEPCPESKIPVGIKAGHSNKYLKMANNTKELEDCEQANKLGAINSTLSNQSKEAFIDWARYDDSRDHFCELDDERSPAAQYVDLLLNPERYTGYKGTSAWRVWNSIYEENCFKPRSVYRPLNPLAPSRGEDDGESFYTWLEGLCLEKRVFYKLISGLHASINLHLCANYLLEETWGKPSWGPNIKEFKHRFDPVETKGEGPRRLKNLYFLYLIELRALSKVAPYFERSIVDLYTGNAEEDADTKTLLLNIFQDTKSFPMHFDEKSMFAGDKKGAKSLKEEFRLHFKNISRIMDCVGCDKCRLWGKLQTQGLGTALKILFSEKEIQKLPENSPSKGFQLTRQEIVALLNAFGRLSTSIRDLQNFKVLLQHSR
UniProt P13804: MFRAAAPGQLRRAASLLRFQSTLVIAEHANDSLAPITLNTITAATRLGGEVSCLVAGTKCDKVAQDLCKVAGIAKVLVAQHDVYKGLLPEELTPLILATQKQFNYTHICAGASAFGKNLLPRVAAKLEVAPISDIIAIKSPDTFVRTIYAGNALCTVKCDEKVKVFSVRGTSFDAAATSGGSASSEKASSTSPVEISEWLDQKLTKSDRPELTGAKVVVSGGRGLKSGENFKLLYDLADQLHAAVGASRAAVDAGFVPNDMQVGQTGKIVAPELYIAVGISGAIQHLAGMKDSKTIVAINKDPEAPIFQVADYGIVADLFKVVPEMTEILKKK
UniProt O95571: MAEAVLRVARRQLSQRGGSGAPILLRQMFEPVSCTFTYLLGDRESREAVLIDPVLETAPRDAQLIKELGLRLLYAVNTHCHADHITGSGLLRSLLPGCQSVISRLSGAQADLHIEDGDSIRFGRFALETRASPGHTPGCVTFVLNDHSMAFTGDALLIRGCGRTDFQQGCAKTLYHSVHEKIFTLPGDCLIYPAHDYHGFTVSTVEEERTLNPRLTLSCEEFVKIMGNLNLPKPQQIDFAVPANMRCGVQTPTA
UniProt Q6NZ36: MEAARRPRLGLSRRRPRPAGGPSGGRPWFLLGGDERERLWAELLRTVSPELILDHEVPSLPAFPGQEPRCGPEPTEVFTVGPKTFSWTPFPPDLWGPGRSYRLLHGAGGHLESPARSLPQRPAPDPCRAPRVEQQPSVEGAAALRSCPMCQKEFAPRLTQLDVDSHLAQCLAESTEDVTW
UniProt Q13216, whole entry, looked up: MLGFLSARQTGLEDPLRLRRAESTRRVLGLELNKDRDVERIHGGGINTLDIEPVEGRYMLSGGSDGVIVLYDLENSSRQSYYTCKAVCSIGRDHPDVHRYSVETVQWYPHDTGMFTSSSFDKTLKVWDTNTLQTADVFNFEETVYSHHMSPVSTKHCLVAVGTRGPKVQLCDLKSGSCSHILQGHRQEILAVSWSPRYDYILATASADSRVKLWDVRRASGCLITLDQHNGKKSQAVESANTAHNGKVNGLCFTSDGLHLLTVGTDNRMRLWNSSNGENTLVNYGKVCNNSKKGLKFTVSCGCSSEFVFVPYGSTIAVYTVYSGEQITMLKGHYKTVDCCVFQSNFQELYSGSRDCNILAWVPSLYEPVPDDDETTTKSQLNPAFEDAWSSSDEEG
UniProt Q969X5: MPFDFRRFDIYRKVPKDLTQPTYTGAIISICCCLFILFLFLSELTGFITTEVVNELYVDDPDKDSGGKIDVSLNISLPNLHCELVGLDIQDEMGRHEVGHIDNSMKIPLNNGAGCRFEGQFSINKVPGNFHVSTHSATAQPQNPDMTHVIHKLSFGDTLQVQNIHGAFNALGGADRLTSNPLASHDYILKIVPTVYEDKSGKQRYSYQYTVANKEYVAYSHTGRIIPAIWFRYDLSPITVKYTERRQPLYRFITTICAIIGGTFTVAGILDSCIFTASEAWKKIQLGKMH

Compound: c1cn2cc(-c3ccc4cn[nH]c4c3)nc(Nc3ccc(N4CCOCC4)cc3)c2n1 [entospletinib]
Experiment: log2 fold change, soluble protein after heating vs DMSO (PISA); higher = thermal stabilisation; K562 cells, 10 uM, 30 min; active = over 0.2 and 3.5 SD of the protein, either way, in both replicates (recomputed)
Method in brief: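 Aliquots of K562 cells (2×10^6 cells/mL) treated with 10 μM compound for 30 min were heated for 3 min over 48°C-58°C. After pooling and extraction in PBS with 0.5% NP-40 at 4°C, soluble protein from a 21,000xg, 90 min spin was quantified by TMTpro 16plex LC-MS/MS with channel sums equalised. Thermal stability is expressed against control samples, from duplicates, as a log2 fold change.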

log2 fold change, inactive:
ERC1 (UniProt Q8IUD2) -0.083
ERAL1 (UniProt O75616) 0.081
ETNPPL (UniProt Q8TBG4) 0.292
EWSR1 isoform 5 (UniProt Q01844) 0.044
EPRS (UniProt P07814) 0.167
EXOSC1 (UniProt Q9Y3B2) 0.089
FABP5 (UniProt Q01469) 0.026
ETFB (UniProt P38117) 0.054
ERH (UniProt P84090) 0.063
FAM122B isoform 3 (UniProt Q7Z309) -0.017
ESRRB isoform 1 (UniProt O95718) 0.018
ERGIC2 (UniProt Q96RQ1) -0.015
FAM126A (UniProt Q9BYI3) 0.144
ERI3 (UniProt H0Y4B0) 0.555
ERBIN isoform 8 (UniProt Q96RT1) 0.019
ESYT2 isoform 2 (UniProt A0FGR8) -0.009
EVPL (UniProt Q92817) -0.04
ERO1B (UniProt Q86YB8) -0.246
EXOSC7 (UniProt Q15024) -0.008
EPCAM (UniProt P16422) 0.025
ETFA (UniProt P13804) 0.006
ETHE1 (UniProt O95571) 0.049
ERCC5 (UniProt P28715) 0.035
FAAP20 isoform 2 (UniProt Q6NZ36) -0.072
EPM2AIP1 (UniProt Q7L775) -0.012
ETFDH (UniProt Q16134) 0.002
EPN2 (UniProt O95208) -0.008
ERCC8 (UniProt Q13216) 0.052
ERGIC1 (UniProt Q969X5) -0.025
ERVK3-1, A0A0U1RQV1 0.014

Already shown: an excerpt of the list.
log2 fold change, inactive:
ERGIC2 (UniProt Q96RQ1) -0.015
FAM126A (UniProt Q9BYI3) 0.144
ERI3 (UniProt H0Y4B0) 0.555
ERBIN isoform 8 (UniProt Q96RT1) 0.019
ESYT2 isoform 2 (UniProt A0FGR8) -0.009
EVPL (UniProt Q92817) -0.04
ERO1B (UniProt Q86YB8) -0.246
EXOSC7 (UniProt Q15024) -0.008
